In this test the target is T1, S100A11 (human (endogenous in BxPC3 and SW1990)) (UniProt P31949).
T1 sequence: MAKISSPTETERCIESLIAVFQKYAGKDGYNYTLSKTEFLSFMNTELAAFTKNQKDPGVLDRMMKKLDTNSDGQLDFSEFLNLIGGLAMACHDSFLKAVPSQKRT
The test can be described thus: affinity purification with mass spectrometry; Co-IP of S100A11 followed by MS to screen interactive partners; cell line not stated.

Sequences of proteins named here, by UniProt entry; tags and fusion partners are left off.
UniProt Q8TEK3: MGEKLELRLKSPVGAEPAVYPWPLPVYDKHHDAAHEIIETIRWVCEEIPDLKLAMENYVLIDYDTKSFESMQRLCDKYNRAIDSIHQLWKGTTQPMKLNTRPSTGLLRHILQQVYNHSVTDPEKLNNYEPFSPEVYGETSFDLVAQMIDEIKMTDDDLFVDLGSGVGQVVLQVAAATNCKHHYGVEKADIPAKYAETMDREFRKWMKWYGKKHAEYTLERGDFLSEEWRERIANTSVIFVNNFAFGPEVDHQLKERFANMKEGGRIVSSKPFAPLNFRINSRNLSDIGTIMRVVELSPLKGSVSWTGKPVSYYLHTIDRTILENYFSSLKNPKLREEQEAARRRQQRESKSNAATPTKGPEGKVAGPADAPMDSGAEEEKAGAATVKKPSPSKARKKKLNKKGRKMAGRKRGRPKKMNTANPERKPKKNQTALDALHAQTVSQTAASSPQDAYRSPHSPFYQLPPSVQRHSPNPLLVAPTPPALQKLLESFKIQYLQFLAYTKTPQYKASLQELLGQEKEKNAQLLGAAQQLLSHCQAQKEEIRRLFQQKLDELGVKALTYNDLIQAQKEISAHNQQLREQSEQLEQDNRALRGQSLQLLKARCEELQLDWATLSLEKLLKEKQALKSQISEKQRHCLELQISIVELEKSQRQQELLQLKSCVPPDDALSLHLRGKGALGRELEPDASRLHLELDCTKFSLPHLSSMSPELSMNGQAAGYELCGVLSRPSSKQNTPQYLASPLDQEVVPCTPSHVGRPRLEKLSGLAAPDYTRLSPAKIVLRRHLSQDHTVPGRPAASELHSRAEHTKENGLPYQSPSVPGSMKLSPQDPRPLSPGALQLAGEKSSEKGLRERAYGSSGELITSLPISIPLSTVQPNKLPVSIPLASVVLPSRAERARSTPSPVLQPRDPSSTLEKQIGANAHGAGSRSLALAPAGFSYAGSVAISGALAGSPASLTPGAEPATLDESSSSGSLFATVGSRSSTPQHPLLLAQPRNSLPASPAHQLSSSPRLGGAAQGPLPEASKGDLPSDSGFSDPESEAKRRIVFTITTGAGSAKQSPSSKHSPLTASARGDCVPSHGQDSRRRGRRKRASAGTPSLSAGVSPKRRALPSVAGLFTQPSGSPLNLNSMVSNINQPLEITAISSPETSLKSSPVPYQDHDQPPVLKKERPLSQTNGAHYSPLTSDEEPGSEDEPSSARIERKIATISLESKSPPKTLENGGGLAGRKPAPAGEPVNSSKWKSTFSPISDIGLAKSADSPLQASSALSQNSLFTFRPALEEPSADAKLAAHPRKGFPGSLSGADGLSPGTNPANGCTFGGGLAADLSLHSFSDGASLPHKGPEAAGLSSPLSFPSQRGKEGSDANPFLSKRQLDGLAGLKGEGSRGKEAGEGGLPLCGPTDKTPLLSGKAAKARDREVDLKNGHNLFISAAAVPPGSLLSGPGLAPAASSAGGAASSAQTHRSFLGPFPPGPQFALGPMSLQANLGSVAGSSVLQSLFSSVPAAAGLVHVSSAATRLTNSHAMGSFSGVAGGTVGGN
UniProt Q9H9B1: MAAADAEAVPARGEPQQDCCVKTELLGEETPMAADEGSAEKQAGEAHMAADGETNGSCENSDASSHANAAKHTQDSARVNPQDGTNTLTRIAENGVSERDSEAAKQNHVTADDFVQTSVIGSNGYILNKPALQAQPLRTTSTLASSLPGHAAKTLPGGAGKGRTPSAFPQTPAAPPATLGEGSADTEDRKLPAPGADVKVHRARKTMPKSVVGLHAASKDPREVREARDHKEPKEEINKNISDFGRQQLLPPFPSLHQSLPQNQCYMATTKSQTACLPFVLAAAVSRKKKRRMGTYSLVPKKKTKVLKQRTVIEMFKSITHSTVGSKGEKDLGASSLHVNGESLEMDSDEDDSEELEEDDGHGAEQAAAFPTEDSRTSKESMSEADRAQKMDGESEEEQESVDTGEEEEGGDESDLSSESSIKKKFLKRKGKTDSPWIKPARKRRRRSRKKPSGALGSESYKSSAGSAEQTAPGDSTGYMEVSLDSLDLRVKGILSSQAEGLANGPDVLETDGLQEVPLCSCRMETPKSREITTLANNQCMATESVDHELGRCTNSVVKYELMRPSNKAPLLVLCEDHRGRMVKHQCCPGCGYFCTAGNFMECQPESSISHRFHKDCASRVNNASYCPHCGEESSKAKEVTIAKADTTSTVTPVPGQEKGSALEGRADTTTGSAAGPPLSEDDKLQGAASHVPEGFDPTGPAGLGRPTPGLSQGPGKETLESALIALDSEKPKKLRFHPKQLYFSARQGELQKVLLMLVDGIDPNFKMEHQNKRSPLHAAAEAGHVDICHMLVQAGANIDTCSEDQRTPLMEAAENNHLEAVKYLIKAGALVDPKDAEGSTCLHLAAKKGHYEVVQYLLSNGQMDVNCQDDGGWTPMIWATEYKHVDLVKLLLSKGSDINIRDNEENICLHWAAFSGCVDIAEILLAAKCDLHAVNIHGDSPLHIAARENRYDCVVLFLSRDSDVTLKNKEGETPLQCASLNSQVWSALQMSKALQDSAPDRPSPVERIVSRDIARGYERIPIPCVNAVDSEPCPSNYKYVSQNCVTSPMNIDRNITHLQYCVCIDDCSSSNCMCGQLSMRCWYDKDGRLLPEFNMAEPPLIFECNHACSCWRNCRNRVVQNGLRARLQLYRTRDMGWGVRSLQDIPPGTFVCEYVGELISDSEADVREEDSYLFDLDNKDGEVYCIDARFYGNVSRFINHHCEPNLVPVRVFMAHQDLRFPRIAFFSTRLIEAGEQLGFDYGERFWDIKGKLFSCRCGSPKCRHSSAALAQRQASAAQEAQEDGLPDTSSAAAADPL
UniProt Q92830: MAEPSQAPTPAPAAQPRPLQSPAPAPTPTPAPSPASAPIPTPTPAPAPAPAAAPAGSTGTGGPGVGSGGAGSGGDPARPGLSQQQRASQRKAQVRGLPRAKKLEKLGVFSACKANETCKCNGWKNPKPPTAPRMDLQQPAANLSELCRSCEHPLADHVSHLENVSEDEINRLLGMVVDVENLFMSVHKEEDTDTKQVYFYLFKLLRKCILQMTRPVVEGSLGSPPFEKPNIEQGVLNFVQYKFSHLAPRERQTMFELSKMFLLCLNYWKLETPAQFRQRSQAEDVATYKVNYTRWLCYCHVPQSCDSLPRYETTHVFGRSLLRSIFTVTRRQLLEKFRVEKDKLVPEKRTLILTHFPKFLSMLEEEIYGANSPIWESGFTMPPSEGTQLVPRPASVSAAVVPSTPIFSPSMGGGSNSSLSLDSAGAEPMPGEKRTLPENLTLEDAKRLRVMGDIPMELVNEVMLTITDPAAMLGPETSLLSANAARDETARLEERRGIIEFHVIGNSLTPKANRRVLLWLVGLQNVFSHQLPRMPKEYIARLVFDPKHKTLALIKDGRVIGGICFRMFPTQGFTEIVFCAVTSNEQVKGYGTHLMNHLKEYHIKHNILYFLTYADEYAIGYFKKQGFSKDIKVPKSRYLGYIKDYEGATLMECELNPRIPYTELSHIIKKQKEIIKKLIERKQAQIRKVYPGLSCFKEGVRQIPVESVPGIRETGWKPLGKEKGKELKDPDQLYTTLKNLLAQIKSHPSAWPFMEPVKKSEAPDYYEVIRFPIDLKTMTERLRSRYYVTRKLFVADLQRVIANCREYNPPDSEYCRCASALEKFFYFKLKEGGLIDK
UniProt Q92993: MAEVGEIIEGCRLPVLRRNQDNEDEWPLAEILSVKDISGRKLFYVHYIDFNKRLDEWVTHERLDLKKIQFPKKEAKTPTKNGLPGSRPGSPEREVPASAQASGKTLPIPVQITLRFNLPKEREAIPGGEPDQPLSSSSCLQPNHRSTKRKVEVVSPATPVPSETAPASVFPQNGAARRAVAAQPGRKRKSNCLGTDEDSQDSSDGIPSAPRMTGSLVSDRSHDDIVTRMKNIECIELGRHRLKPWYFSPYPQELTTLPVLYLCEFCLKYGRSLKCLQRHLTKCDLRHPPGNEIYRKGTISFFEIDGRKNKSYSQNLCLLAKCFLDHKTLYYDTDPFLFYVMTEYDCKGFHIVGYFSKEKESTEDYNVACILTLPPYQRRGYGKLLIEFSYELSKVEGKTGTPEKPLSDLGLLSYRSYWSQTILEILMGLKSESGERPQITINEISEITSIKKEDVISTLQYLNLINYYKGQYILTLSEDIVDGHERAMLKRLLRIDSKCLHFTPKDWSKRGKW

These are yes or no findings as the source states them, for the method shown. Binding seen in cells or lysates may run through a third protein. Here binding means that the protein was enriched with, or labelled near, the bait; the list need not be complete.

In the case of “DOT1L (from UniProt Q8TEK3 1-1537) (enzyme)”, the binding result was “binds”. For the molecule “EHMT1 (from UniProt Q9H9B1 1-1298) (enzyme)”, the binding entry is recorded as “binds”.

Regarding “KAT2A (from UniProt Q92830 1-837) (enzyme)”, the binding result was “binds”. For “KAT5 (from UniProt Q92993 1-513) (enzyme)” the value was “binds”.

B1: SETD7 (enzyme, UniProt Q8WTS6 1-366)
chain: MDSDDEMVEEAVEGHLDDDGLPHGFCTVTYSSTDRFEGNFVHGEKNGRGKFFFFDGSTLEGYYVDDALQGQGVYTYEDGGVLQGTYVDGELNGPAQEYDTDGRLIFKGQYKDNIRHGVCWIYYPDGGSLVGEVNEDGEMTGEKIAYVYPDERTALYGKFIDGEMIEGKLATLMSTEEGRPHFELMPGNSVYHFDKSTSSCISTNALLPDPYESERVYVAESLISSAGEGLFSKVAVGPNTVMSFYNGVRITHQEVDSRDWALNGNTLSLDEETVIDVPEPYNHVSKYCASLGHKANHSFTPNCIYDMFVHPRFGPIKCIRTLRAVEADEELTVAYGYDHSPPGKSGPEAPEWYQVELKAFQATQQK
Take B1: the binding entry was “binds”.

B2: SMYD3 (enzyme, UniProt Q9H7B4 1-428)
chain: MEPLKVEKFATAKRGNGLRAVTPLRPGELLFRSDPLAYTVCKGSRGVVCDRCLLGKEKLMRCSQCRVAKYCSAKCQKKAWPDHKRECKCLKSCKPRYPPDSVRLLGRVVFKLMDGAPSESEKLYSFYDLESNINKLTEDKKEGLRQLVMTFQHFMREEIQDASQLPPAFDLFEAFAKVICNSFTICNAEMQEVGVGLYPSISLLNHSCDPNCSIVFNGPHLLLRAVRDIEVGEELTICYLDMLMTSEERRKQLRDQYCFECDCFRCQTQDKDADMLTGDEQVWKEVQESLKKIEELKAHWKWEQVLAMCQAIISSNSERLPDINIYQLKVLDCAMDACINLGLLEEALFYGTRTMEPYRIFFPGSHPVRGVQVMKVGKLQLHQGMFPQAMKNLRLAFDIMRVTHGREHSLIEDLILLLEECDANIRAS
For B2, the binding entry is reported as “binds”.

(Values after article PMC9233679.)
